In US20230116688A1 (SPLICEBIO S L, published 2023):

Molecular target: T1, EGFP-71-CfaC
T1 chain: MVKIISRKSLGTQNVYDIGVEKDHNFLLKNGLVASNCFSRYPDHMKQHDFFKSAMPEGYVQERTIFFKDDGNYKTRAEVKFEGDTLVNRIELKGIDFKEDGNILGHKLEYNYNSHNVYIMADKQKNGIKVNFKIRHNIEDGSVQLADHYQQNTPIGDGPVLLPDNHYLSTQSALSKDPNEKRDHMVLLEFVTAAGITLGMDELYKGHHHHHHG
Experiment: cell-based or functional assay

B1: EGFP-71-CfaN (other)
chain: MVSKGEELFTGVVPILVELDGDVNGHKFSVSGEGEGDATYGKLTLKFICTTGKLPVPWPTLVTTLTYGVQCLSYDTEILTVEYGFLPIGKIVEERIECTVYTVDKNGFVYTQPIAQWHNRGEQEVFEYCLEDGSIIRATKDHKFMTTDGQMLPIDEIFERGLDLKQVDGLPGHHHHHHG
  EGFP reconstitution by protein trans-splicing in co-transfected HEK293 cells, fold increase relative to the Npu intein pair: 2.5 fold
  Mean Fluorescence Intensity (MFI) of reconstituted EGFP, flow cytometry of co-transfected HEK293 cells, relative to full length EGFP: > 90 % of full length EGFP signal
